Record: PubChem BioAssay AID1508597 (Cure First, 2020)
Shown is a random part of the about 2,100 reagents, under one of the conditions tested. 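Calls flag viability under 80% in either arm, not effects specific to rucaparib; the reference for percent is not stated.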 The record does not give: the 100% reference.

Screen: 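Genes whose silencing sensitises or protects ovarian cancer cells against rucaparib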 (primary screen)
System: human ovarian carcinoma lines grown from tumours: OCI-P5x (papillary serous) and OCI-C5x (clear cell)
Reagent: siRNA pool against human genes, 1.25 pmol siRNA per well
Time to read-out: 72 h or 96 h, depending on the cell culture
Conditions: rucaparib 20 µM (about IC30) or vehicle, present until read-out
Rucaparib or vehicle: Vehicle
Cell line: OCI-P5x (serous)
Detection: 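Luminescent ATP-based viability assay read 72 or 96 h after transfection, depending on culture, given as normalised percent viability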
Scale: viability, normalised: higher = more viable cells remaining
Active means: 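Active when normalised viability falls below 80 percent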
Calls: active = viability under 80%; inactive = viability 80% or more

no.	target	PubChem SID	technical replicate	viability, normalised (%)	outcome
1	RRP8 (ribosomal RNA processing 8)	SID405527261	1	36.7	active
2	RRP8 (ribosomal RNA processing 8)	SID405527261	2	40.7	active
3	RRP8 (ribosomal RNA processing 8)	SID405527261	3	76.7	active
4	SQLE (squalene epoxidase)	SID405526337	1	78	active
5	SQLE (squalene epoxidase)	SID405526337	2	75.4	active
6	SQLE (squalene epoxidase)	SID405526337	3	88.1	inactive
7	SUDS3 (SIN3A corepressor complex component SDS3)	SID405526503	1	66.8	active
8	SUDS3 (SIN3A corepressor complex component SDS3)	SID405526503	2	52.3	active
9	SUDS3 (SIN3A corepressor complex component SDS3)	SID405526503	3	78.1	active
10	DDX4 (DEAD-box helicase 4)	SID405528187	1	49.8	active
11	DDX4 (DEAD-box helicase 4)	SID405528187	2	57	active
12	DDX4 (DEAD-box helicase 4)	SID405528187	3	57.5	active
13	GALK2 (galactokinase 2)	SID405527362	1	65.3	active
14	GALK2 (galactokinase 2)	SID405527362	2	73.4	active
15	GALK2 (galactokinase 2)	SID405527362	3	82.2	inactive
16	TRPM6	SID405527853	1	77.6	active
17	TRPM6	SID405527853	2	72.2	active
18	TRPM6	SID405527853	3	68.5	active
19	DUT (deoxyuridine triphosphatase)	SID405528495	1	53.5	active
20	DUT (deoxyuridine triphosphatase)	SID405528495	2	72.7	active
21	DUT (deoxyuridine triphosphatase)	SID405528495	3	45.9	active
22	PI4K2B (phosphatidylinositol 4-kinase type 2 beta)	SID405527742	1	79.3	active
23	PI4K2B (phosphatidylinositol 4-kinase type 2 beta)	SID405527742	2	67.9	active
24	PI4K2B (phosphatidylinositol 4-kinase type 2 beta)	SID405527742	3	63.5	active
25	ENPP6 (ectonucleotide pyrophosphatase/phosphodiesterase 6)	SID405526671	1	73.4	active
26	ENPP6 (ectonucleotide pyrophosphatase/phosphodiesterase 6)	SID405526671	2	72.4	active
27	ENPP6 (ectonucleotide pyrophosphatase/phosphodiesterase 6)	SID405526671	3	59.3	active
28	KDM6B (lysine demethylase 6B)	SID405526942	1	67.7	active
29	KDM6B (lysine demethylase 6B)	SID405526942	2	73.7	active
30	KDM6B (lysine demethylase 6B)	SID405526942	3	64.2	active
31	CDIPT (CDP-diacylglycerol--inositol 3-phosphatidyltransferase)	SID405528086	1	83.6	inactive
32	CDIPT (CDP-diacylglycerol--inositol 3-phosphatidyltransferase)	SID405528086	2	90	inactive
33	CDIPT (CDP-diacylglycerol--inositol 3-phosphatidyltransferase)	SID405528086	3	78.5	active
34	TNKS (tankyrase)	SID405528466	1	76.8	active
35	TNKS (tankyrase)	SID405528466	2	94.3	inactive
36	TNKS (tankyrase)	SID405528466	3	97.7	inactive
37	FKBP1A (FKBP prolyl isomerase 1A)	SID405526785	1	76	active
38	FKBP1A (FKBP prolyl isomerase 1A)	SID405526785	2	70.5	active
39	FKBP1A (FKBP prolyl isomerase 1A)	SID405526785	3	96.9	inactive

A few values from the entries so far.
Entry of TRPM6 [SID405527853], technical replicate 3 under “outcome”: active
Under “viability, normalised (%)”, KDM6B (lysine demethylase 6B) [SID405526942], technical replicate 1 has 67.7
DUT (deoxyuridine triphosphatase) [SID405528495], technical replicate 1, outcome = active
